# The supplement of paper PMC12067093, “Discovery and optimisation of a covalent ligand for TRIM25 and its application to targeted protein ubiquitination” (Chemical Science, 2025)
# Amino acid sequences for entries named in this document (tags omitted). A change or cut given only in a name is not applied to a line headed by its entry.
# UniProt Q8N3U4: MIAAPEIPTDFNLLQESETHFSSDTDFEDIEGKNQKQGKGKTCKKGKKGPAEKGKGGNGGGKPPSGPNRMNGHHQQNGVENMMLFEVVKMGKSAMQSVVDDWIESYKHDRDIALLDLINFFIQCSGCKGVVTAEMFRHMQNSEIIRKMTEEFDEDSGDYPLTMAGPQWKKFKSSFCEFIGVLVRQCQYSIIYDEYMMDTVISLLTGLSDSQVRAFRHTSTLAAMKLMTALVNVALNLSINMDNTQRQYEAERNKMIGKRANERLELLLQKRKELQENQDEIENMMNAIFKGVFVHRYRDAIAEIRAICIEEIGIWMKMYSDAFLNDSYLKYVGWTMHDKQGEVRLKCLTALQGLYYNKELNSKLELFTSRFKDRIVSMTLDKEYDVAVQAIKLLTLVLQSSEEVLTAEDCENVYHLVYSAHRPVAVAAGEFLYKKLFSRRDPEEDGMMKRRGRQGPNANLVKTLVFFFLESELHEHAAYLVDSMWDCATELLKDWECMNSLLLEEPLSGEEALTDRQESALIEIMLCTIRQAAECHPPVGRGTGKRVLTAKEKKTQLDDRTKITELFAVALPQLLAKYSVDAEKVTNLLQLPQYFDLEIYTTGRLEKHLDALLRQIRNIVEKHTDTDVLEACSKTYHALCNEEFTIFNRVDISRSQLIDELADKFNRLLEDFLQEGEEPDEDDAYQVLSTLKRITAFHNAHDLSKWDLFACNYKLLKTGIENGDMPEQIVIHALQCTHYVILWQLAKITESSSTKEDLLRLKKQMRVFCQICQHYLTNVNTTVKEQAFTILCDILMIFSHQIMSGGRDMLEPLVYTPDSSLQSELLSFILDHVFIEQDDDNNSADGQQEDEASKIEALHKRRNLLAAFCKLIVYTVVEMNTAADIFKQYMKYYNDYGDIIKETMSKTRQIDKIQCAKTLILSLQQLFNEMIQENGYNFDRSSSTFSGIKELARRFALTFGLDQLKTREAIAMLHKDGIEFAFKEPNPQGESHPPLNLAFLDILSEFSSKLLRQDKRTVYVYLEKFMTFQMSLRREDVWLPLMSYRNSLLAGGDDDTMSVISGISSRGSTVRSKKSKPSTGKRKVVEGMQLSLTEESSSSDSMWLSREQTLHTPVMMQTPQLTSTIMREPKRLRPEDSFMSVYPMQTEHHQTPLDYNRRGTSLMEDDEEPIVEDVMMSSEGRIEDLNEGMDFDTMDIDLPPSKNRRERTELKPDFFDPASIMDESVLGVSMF
# UniProt Q9Y3F4: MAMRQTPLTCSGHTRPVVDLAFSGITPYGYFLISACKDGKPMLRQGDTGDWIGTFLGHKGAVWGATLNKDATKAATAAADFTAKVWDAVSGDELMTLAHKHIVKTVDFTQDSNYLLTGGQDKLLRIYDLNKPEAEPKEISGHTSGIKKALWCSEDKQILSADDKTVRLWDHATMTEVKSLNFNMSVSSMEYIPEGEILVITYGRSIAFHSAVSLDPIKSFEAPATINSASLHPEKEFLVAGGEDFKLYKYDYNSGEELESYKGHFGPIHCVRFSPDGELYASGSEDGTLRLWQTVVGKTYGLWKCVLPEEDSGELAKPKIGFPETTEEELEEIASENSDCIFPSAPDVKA
# UniProt Q15833: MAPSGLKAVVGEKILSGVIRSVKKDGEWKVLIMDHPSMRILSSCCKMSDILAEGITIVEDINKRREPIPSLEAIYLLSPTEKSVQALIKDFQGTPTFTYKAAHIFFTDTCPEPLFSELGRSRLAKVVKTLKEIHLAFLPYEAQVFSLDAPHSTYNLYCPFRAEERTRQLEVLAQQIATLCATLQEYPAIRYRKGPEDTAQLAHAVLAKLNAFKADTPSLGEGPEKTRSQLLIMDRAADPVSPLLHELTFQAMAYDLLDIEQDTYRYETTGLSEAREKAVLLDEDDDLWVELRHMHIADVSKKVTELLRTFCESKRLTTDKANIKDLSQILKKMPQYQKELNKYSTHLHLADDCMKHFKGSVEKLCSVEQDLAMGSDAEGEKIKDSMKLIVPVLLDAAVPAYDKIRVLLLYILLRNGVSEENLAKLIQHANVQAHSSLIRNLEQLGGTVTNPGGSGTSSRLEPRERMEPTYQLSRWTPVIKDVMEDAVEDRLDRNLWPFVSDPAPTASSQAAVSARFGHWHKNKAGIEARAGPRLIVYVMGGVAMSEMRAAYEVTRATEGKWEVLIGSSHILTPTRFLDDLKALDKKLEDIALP
# UniProt Q8NBK3: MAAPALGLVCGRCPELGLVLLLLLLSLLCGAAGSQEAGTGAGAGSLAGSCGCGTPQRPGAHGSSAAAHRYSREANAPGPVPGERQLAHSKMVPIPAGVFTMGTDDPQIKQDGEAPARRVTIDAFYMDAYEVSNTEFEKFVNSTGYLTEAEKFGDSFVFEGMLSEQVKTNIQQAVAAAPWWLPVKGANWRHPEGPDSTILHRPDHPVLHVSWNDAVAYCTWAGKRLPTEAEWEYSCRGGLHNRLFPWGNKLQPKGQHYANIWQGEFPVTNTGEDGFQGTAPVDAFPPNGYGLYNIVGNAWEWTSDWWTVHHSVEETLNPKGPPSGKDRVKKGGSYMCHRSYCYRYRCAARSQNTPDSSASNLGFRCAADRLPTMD
# UniProt Q658P3: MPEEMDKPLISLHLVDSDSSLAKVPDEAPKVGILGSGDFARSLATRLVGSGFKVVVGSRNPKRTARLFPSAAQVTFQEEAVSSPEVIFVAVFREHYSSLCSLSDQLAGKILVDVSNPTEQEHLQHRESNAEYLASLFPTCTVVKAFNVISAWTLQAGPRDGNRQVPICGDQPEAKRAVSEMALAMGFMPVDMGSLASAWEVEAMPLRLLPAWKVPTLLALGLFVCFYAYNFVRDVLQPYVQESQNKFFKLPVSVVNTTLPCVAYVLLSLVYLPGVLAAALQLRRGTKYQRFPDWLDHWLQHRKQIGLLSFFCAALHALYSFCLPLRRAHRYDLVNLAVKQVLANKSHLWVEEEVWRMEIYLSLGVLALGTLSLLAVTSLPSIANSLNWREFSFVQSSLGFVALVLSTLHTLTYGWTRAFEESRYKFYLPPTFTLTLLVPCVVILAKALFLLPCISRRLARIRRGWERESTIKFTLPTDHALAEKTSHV
# UniProt Q9BXP5: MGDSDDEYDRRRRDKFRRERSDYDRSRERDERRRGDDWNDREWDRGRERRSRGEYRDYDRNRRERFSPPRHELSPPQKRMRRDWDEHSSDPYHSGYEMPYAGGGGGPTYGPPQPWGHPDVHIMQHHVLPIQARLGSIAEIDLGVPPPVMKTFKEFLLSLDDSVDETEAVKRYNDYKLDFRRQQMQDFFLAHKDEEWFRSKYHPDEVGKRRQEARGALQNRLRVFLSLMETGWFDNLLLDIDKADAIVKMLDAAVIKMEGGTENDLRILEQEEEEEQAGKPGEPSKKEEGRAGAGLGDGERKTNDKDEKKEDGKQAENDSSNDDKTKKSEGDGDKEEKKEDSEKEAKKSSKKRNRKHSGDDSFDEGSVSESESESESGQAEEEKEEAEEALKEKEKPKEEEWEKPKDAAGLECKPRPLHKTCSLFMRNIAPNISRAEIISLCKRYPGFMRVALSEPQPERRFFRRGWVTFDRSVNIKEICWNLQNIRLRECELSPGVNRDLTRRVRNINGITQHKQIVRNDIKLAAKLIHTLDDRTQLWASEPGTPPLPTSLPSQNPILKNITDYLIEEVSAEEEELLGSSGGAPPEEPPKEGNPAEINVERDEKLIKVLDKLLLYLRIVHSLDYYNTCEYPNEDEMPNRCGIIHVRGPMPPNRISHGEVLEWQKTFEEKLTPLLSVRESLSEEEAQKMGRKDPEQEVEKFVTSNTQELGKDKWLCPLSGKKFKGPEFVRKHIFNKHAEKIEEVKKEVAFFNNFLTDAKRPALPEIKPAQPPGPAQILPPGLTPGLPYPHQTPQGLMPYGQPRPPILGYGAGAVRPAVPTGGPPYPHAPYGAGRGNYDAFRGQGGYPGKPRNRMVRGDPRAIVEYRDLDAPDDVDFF
# UniProt Q9Y2Z0: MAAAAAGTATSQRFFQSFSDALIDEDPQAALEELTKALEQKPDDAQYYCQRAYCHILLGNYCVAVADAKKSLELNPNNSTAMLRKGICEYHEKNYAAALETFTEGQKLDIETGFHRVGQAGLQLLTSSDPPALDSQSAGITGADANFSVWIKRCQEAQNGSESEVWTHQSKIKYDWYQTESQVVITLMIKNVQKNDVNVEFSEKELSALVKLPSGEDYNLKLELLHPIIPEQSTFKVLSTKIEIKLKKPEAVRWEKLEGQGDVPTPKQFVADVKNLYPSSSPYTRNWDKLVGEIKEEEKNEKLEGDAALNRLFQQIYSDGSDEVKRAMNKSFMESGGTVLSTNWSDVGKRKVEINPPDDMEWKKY
# UniProt Q8IX01: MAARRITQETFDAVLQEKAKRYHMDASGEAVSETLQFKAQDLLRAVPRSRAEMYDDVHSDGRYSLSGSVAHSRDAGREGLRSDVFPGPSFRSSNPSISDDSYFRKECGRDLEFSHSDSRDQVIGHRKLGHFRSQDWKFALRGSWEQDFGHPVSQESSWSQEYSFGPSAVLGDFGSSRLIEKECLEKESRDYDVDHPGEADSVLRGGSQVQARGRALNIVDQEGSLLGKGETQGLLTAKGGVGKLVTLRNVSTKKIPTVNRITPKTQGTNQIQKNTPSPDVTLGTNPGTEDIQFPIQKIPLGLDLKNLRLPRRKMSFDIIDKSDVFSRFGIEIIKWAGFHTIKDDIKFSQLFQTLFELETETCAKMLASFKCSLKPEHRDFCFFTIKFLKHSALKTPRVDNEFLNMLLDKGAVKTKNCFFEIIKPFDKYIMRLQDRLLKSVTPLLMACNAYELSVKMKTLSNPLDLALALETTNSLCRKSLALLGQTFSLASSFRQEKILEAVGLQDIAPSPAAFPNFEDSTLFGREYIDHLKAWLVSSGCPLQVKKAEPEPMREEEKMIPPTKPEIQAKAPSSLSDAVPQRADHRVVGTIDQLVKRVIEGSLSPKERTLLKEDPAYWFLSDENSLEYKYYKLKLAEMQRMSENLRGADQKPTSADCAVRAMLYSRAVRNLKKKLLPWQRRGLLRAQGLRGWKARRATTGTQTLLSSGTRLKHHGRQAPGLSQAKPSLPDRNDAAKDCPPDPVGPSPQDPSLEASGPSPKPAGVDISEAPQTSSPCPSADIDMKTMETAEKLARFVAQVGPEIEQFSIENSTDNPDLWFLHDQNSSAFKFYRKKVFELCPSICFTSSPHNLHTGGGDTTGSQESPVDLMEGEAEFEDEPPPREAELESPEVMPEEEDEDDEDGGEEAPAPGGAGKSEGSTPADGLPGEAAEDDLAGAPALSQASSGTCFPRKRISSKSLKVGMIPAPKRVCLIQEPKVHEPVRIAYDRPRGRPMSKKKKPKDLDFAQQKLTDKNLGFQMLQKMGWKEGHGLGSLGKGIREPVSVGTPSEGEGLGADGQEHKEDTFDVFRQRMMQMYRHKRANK
# UniProt P52630: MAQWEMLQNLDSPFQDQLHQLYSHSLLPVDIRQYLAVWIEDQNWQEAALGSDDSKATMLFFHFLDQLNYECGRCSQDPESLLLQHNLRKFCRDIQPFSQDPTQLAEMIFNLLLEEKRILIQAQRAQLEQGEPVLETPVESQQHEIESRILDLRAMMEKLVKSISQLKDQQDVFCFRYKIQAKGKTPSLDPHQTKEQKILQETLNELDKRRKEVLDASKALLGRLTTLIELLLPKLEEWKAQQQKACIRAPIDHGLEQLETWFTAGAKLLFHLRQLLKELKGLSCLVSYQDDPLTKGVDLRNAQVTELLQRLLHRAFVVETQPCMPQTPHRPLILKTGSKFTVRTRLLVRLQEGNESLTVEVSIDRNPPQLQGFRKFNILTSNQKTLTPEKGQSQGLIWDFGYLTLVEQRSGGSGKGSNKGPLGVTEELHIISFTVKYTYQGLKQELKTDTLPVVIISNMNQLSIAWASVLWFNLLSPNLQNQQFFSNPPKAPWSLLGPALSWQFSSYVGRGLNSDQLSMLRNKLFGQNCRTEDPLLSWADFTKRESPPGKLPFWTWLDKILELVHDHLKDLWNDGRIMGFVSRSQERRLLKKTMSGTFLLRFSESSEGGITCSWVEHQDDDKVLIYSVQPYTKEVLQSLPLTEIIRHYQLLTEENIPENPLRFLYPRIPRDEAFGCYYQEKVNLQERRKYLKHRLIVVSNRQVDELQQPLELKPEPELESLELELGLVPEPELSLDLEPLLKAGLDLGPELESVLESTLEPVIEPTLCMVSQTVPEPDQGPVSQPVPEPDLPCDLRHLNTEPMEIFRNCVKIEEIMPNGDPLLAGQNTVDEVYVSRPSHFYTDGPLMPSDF
# The other results are listed elsewhere or left out.
# Compound: CC1Cc2ccccc2N1C(=O)C1CCCN(C1)C(=O)CCl (mixture of isomers) [TRIM25 ligand 11 (diastereomer mixture)]
# Test: probe-labelled cysteine peptide fold change vs DMSO (competition) (log2 fold change); higher = less target engagement (more negative = stronger competition)
# Conditions: THP-1, incubation time: 4 h
# 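Further: competitive chemoproteomic profiling in live THP-1 cells with an iodoacetamide desthiobiotin (IA-DTB) probe, comparing probe-labelled peptide intensities in compound-treated cells against DMSO-treated controls.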
Target,probe-labelled cysteine peptide fold change (10 µM),probe-labelled cysteine peptide fold change (50 µM)
SUPT6H_Q7KZ85_1265_VGMTVHCR (UniProt Q7KZ85),-0.253,0.0584
STAG2_Q8N3U4_308_AICIEEIGIWMK (UniProt Q8N3U4),0.133,0.329
STRAP_Q9Y3F4_305_CVLPEEDSGELAK (UniProt Q9Y3F4),0.169,0.216
STXBP2_Q15833_44_ILSSCCK (UniProt Q15833),0.122,0.288
STXBP5_Q5T5C0_49_VLDGLTAGSSSASQQQQQQHPPGNREPEIQETLQSEHFQLCK (UniProt Q5T5C0),-0.013,-0.079
SUMF1_Q8NBK3_235_RLPTEAEWEYSCR (UniProt Q8NBK3),-0.0639,-0.178
STEAP3_Q658P3_168_QVPICGDQPEAK (UniProt Q658P3),0.0193,-0.124
SRRT_Q9BXP5_628_IVHSLDYYNTCEYPNEDEMPNR (UniProt Q9BXP5),0.0704,-0.0323
SUGT1_Q9Y2Z0_54_AYCHILLGNYCVAVADAKK (UniProt Q9Y2Z0),-0.16,-0.0849
SUGP2_Q8IX01_970_VCLIQEPK (UniProt Q8IX01),0.0982,0.00319
STAT2_P52630_323_AFVVETQPCMPQTPHRPLILK (UniProt P52630),0.0453,0.0157
SUPT6H_Q7KZ85_939_IQDPLIEFAQVCSSDEDILCLK (UniProt Q7KZ85),-0.101,0.483

# Given with bars between the fields: part of the list above
Target | probe-labelled cysteine peptide fold change (10 µM) | probe-labelled cysteine peptide fold change (50 µM)
STEAP3_Q658P3_168_QVPICGDQPEAK (UniProt Q658P3) | 0.0193 | -0.124
SRRT_Q9BXP5_628_IVHSLDYYNTCEYPNEDEMPNR (UniProt Q9BXP5) | 0.0704 | -0.0323
